# Assay results from the supplement of paper PMC7666118.
# By UniProt entry, the sequences of proteins in these tests, tags left out. Where a name states a change or a piece, a line headed by the entry shows the natural chain unless it says otherwise.
# UniProt Q00535, whole entry, looked up: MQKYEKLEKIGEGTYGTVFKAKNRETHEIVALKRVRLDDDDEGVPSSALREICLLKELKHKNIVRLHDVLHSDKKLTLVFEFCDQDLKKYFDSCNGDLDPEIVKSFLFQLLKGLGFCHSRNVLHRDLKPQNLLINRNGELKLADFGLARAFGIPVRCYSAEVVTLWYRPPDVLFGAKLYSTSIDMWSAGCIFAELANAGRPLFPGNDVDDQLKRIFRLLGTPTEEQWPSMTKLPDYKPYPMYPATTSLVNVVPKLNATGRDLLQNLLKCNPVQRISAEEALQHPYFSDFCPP
# UniProt P48960: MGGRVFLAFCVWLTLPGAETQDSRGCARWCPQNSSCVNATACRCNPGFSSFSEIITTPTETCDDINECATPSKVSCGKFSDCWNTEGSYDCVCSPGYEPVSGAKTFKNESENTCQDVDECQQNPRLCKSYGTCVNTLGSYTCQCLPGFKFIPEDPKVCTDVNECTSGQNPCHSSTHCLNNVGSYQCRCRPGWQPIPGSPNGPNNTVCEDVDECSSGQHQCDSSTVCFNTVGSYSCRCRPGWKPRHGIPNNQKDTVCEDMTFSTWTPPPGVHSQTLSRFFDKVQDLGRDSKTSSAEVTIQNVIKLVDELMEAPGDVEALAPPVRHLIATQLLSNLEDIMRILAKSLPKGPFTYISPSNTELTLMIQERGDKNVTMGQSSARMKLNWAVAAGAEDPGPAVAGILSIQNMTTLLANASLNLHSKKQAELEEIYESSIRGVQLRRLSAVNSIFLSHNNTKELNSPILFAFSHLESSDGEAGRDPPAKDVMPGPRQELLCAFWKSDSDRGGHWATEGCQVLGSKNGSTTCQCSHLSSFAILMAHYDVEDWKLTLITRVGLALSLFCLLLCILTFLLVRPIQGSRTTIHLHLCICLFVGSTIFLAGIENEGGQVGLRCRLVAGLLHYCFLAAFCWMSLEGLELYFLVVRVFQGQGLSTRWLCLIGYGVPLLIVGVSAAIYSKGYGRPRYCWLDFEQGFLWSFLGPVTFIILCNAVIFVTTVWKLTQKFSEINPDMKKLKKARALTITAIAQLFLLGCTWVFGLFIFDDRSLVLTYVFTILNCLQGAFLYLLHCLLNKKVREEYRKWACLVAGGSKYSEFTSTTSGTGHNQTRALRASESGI
# UniProt P13073, whole entry: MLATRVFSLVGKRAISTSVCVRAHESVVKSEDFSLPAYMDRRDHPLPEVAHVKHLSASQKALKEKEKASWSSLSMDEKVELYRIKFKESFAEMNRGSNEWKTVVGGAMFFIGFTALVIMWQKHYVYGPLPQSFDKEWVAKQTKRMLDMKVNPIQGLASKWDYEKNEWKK
# UniProt Q8N960: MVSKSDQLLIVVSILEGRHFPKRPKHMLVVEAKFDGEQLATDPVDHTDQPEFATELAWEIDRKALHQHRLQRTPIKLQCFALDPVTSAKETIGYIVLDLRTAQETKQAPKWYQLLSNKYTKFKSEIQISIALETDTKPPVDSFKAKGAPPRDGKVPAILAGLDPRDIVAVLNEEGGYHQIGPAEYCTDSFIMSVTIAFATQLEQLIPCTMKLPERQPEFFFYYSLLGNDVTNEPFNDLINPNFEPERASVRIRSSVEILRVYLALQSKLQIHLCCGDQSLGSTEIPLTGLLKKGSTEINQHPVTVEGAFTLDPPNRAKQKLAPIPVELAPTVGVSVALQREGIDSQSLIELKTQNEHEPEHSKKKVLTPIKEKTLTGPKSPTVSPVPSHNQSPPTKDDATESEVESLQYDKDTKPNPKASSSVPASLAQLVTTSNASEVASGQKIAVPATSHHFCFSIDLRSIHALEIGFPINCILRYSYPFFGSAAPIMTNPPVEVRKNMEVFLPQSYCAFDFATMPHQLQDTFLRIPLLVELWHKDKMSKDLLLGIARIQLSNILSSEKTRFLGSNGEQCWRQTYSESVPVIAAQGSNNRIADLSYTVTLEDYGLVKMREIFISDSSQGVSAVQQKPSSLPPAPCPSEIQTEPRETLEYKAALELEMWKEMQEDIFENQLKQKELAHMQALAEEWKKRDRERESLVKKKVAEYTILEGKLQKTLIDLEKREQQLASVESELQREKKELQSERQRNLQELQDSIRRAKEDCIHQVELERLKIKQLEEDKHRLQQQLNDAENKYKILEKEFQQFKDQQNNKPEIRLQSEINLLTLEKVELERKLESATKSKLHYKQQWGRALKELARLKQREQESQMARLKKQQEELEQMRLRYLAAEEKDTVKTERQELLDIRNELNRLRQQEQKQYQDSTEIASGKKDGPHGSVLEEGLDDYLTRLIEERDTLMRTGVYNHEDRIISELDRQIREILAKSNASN
# UniProt Q9Y678: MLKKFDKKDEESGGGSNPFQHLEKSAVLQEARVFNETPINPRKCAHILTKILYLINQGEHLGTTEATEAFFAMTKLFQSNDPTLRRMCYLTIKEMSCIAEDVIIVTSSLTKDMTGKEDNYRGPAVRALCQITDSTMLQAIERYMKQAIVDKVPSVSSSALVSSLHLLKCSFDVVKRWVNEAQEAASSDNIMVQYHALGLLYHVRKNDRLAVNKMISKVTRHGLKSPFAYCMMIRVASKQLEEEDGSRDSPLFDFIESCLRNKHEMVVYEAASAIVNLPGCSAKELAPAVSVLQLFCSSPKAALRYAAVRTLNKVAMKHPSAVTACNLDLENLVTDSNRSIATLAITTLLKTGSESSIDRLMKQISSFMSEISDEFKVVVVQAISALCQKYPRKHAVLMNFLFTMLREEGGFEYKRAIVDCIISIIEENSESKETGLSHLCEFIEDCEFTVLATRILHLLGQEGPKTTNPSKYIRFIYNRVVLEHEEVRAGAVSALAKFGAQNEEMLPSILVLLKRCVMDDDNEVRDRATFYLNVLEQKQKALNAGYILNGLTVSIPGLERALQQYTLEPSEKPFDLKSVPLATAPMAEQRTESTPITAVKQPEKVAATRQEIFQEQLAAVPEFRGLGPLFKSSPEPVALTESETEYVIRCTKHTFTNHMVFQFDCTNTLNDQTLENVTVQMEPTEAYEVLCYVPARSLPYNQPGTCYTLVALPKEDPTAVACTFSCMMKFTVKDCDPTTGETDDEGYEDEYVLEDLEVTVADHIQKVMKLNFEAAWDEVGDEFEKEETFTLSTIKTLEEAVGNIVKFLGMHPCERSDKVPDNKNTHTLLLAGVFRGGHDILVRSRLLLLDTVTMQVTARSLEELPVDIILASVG
# UniProt P09326: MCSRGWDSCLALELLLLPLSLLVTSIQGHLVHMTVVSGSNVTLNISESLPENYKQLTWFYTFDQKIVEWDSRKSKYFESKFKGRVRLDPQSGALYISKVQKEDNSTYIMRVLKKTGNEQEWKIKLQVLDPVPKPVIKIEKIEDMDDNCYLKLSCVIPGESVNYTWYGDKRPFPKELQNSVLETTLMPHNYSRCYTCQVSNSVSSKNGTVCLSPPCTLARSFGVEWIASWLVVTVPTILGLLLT
# UniProt P30085: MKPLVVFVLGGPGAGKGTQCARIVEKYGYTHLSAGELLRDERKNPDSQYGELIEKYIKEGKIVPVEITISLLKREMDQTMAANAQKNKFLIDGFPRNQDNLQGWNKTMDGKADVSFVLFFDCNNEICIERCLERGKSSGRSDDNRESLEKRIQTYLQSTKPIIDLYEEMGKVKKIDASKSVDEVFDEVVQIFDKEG
# UniProt P30260, whole entry: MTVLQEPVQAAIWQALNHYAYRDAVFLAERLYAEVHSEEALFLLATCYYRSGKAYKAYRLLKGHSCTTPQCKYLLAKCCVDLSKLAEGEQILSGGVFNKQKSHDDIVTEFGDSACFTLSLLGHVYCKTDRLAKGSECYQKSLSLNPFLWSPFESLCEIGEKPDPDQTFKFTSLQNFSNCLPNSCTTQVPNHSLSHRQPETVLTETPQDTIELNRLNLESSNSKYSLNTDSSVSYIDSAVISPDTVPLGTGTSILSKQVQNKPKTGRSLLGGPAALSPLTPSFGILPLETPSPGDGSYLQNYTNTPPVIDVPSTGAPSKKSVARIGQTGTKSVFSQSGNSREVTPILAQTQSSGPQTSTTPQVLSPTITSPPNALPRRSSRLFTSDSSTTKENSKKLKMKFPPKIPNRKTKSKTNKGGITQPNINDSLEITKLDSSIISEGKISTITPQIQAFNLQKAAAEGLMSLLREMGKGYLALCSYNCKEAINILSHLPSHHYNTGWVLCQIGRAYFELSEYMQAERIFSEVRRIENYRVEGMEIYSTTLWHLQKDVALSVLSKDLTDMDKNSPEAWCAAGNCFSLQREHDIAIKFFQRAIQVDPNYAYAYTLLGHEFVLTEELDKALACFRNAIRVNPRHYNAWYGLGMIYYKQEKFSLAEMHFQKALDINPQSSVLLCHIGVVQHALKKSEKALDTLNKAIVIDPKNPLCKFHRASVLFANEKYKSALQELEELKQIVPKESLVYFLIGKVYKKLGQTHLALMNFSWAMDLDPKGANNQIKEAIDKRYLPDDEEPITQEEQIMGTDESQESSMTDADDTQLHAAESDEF
# UniProt Q8N668, whole entry: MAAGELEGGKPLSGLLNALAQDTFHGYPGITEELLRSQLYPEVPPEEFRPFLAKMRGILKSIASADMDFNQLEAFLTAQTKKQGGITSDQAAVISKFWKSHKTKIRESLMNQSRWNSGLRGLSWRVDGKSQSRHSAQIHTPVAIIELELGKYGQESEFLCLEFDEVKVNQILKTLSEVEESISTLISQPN
# UniProt P51798: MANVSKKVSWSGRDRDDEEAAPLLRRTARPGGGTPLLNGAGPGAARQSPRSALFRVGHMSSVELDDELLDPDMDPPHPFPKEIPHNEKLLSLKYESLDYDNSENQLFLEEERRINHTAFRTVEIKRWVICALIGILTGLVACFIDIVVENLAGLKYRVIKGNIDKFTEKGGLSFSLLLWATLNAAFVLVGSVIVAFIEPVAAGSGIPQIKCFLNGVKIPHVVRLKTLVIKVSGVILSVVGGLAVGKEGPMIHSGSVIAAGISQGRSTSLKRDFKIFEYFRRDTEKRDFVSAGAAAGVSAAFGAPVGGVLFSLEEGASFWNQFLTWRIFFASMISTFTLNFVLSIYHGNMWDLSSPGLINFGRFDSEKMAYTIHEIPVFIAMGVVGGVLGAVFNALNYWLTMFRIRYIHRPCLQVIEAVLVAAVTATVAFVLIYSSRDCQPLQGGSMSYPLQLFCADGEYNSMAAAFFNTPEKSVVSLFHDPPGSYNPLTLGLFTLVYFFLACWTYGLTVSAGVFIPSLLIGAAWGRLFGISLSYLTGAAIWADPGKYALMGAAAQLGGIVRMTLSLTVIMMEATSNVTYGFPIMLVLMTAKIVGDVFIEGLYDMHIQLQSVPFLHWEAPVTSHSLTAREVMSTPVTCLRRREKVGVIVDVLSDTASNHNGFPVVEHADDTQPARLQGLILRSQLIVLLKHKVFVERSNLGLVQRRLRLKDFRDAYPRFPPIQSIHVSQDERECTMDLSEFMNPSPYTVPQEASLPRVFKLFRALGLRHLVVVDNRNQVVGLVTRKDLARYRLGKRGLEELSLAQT
# UniProt Q9Y6H1: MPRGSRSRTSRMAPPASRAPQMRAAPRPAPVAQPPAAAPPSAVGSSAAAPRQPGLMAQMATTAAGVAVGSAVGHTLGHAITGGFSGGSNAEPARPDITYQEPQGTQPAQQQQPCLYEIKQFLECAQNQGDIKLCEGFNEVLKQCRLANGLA
# UniProt Q07108: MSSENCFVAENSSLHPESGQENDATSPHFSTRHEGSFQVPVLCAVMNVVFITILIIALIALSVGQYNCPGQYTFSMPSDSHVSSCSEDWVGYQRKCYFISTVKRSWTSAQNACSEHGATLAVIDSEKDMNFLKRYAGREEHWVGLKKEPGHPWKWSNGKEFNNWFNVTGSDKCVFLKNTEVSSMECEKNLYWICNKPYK
# UniProt Q9NWW5: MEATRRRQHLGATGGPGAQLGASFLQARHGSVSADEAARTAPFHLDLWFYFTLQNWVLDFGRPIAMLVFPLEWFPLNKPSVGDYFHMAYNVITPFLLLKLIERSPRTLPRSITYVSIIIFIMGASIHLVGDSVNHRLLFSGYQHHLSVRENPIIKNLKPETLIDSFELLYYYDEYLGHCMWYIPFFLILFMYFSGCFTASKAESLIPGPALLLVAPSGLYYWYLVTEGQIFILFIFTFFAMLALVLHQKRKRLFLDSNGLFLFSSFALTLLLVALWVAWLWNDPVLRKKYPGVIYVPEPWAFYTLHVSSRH
# UniProt Q96FZ7: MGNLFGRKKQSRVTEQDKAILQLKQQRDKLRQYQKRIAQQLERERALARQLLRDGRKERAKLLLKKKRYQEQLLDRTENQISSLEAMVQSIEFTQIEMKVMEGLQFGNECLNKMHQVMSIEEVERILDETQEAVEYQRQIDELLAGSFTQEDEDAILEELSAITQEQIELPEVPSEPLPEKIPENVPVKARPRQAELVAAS
# UniProt Q99439: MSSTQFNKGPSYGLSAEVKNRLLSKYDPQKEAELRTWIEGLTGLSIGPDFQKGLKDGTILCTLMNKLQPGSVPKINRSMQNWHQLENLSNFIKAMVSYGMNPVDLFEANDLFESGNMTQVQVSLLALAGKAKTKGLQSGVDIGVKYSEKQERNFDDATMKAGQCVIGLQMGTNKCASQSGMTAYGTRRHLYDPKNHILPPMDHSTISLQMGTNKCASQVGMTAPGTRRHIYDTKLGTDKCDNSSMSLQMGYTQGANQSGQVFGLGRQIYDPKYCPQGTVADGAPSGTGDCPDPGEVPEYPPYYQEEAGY
# This is one part of the list.
# Compound: COc1ccc(Cn2ccc3cc(C)c(C(=O)NO)cc32)cc1
# Assay: dose-dependent thermal stabilisation call (2D-TPP, DLPTP, 10% FDR) (binary (1 = stabilised)); higher = stabilised by the compound
# Settings: system: HL-60 intact cells; concentration range 0.04-10 µM
# Procedure: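 2D thermal proteome profiling in intact HL-60 cells treated with BRD-3811 (0, 0.04, 0.29, 2, 10 uM) for 90 min at 37 C, then heated 3 min at one of 12 temperatures (42-63.9 C). Soluble protein was quantified by TMT10 MS. The value is the DLPTP call of the paper: dose-dependent thermal stabilisation over all temperatures at 10% FDR (F-test of a dose-response against a flat model); one experiment, one call per tested protein.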
row,Target,dose-dependent thermal stabilisation call
1,CDK5 (UniProt Q00535),inactive: 0
2,CD97 (UniProt P48960),inactive: 0
3,CHCHD1 (UniProt Q96BP2),inactive: 0
4,CDCA5 (UniProt Q96FF9),inactive: 0
5,CLSPN (UniProt Q9HAW4),inactive: 0
6,COX4I1 (UniProt P13073),inactive: 0
7,CEP27 (UniProt Q9NVX0),inactive: 0
8,COX19 (UniProt Q49B96),inactive: 0
9,CEP120 (UniProt Q8N960),inactive: 0
10,CORO7 (UniProt P57737),inactive: 0
11,COPG (UniProt Q9Y678),inactive: 0
12,CDC2L5 (UniProt Q14004),inactive: 0
13,CD48 (UniProt P09326),inactive: 0
14,CHD2 (UniProt O14647),inactive: 0
15,CMPK1 (UniProt P30085),inactive: 0
16,CDC27 (UniProt P30260),inactive: 0
17,COMMD9 (UniProt Q9P000),inactive: 0
18,COMMD1 (UniProt Q8N668),inactive: 0

# An excerpt taken from the entries so far, as a working copy:
row,Target,dose-dependent thermal stabilisation call
15,CMPK1 (UniProt P30085),inactive: 0
16,CDC27 (UniProt P30260),inactive: 0
17,COMMD9 (UniProt Q9P000),inactive: 0

# Next part:

row,Target,dose-dependent thermal stabilisation call
1,CDC73 (UniProt Q6P1J9),inactive: 0
2,COBRA1 (UniProt Q8WX92),inactive: 0
3,CRLF3 (UniProt Q8IUI8),inactive: 0
4,COPB2 (UniProt P35606),inactive: 0
5,CLCN7 (UniProt P51798),inactive: 0
6,CLTC (UniProt Q00610),inactive: 0
7,CHCHD2 (UniProt Q9Y6H1),inactive: 0
8,CNOT7 (UniProt Q9UIV1),inactive: 0
9,CPSF2 (UniProt Q9P2I0),inactive: 0
10,CLDND1 (UniProt Q9NY35),inactive: 0
11,CRKRS (UniProt Q9NYV4),inactive: 0
12,CD69 (UniProt Q07108),inactive: 0
13,CRYZL1 (UniProt O95825),inactive: 0
14,CES2 (UniProt O00748),inactive: 0
15,COG8 (UniProt Q96MW5),inactive: 0
16,CLN6 (UniProt Q9NWW5),inactive: 0
17,CHMP6 (UniProt Q96FZ7),inactive: 0
18,CNN2 (UniProt Q99439),inactive: 0
